PubChem BioAssay AID652272 – Drosophila RNAi Screening Center – 2013
The screen tested about 21,000 reagents; below is an unselected part of those with a known target gene and a result. In the full data, 503 (2.4%) are marked active. 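Raw plate light values, not normalised; calls rest on replicate z-scores that were not deposited; hits include reporter decreases as well as increases.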 Names joined by + are all predicted targets of the reagent. The record does not give: the amount of reagent, the time to read-out.

Screen: 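Genome-wide knock-down search for components of Hedgehog signalling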 (primary screen)
Cells: Drosophila clone 8 (Cl8) cells
Reagent: long dsRNA against Drosophila genes
Detection: 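Firefly light from a Hedgehog-responsive ptc promoter reporter and Renilla reference light, both read on a plate reader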
Direction: firefly Hh reporter signal: higher = more ptc reporter light; Renilla reference signal: higher = more Renilla control light
Rule for the call: 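Hit when the z-score averaged over two replicates is under -2 or over +3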
Calls: active = hit: reporter lowered or raised; inactive = not a hit

target | DRSC id | firefly Hh reporter signal, replicate 1 | firefly Hh reporter signal, replicate 2 | firefly Hh reporter signal, replicate 3 | Renilla reference signal, replicate 1 | Renilla reference signal, replicate 2 | call
EAChm | DRSC10010 | 89317 | – | – | 3035 | 2679 | inactive
Gbp1 | DRSC06592 | 79894 | 42066 | – | 2160 | 3637 | inactive
ppk17 | DRSC02252 | 1.08e5 | 65556 | – | 2906 | 5942 | inactive
CG3649 | DRSC04400 | 1.60e5 | 1.08e5 | – | 3573 | 8452 | inactive
CG32642 | DRSC18959 | 5.05e5 | 1.81e5 | – | 29936 | 4306 | inactive
Fic | DRSC03247 | 57116 | 1.53e5 | – | 2417 | 5814 | inactive
CG11164 | DRSC19392 | 1.05e5 | 2.19e5 | – | 3075 | 7684 | inactive
tsu | DRSC07265 | 1.30e5 | 67760 | – | 2903 | 4893 | inactive
Ddr | DRSC00922 | 5.18e5 | 1.30e5 | – | 27104 | 5936 | inactive
Ddr | DRSC00923 | 4.66e5 | 1.07e5 | – | 25429 | 5720 | inactive
Ddr | DRSC02150 | 1.39e5 | 56484 | – | 3058 | 5280 | inactive
Ddr | DRSC03229 | 1.69e5 | 5.11e5 | 70682 | 4672 | 30163 | inactive
Ddr | DRSC03230 | 1.91e5 | 78531 | – | 5117 | 6738 | inactive
CG34150 | DRSC13689 | 63601 | 2.16e5 | – | 14935 | 4965 | inactive
Kpc1 | DRSC16107 | 1.52e5 | 1.26e5 | – | 6240 | 5319 | inactive
nAChRbeta1 | DRSC08097 | 1.56e5 | 2.69e5 | – | 4167 | 11020 | inactive
nAChRbeta1 | DRSC08728 | 1.23e5 | 78282 | – | 5393 | 3043 | inactive
CG31145 | DRSC13634 | 40167 | 1.73e5 | – | 9979 | 4025 | inactive
CG31145 | DRSC14206 | 4.92e5 | 93568 | – | 29108 | 3308 | inactive
CG31145 | DRSC14670 | 2.08e5 | 17559 | – | 15287 | 1040 | active
CG31145 | DRSC14671 | 4.59e5 | 1.23e5 | – | 25969 | 3664 | inactive
kuk | DRSC15730 | 1.45e5 | 1.03e5 | – | 5956 | 4544 | inactive
spz6 | DRSC04533 | 1.23e5 | 84912 | – | 4514 | 2747 | inactive
CG12320 | DRSC14498 | 5.34e5 | 84584 | – | 26704 | 1796 | inactive
Or47b | DRSC07492 | 1.04e5 | 46129 | – | 2507 | 3549 | inactive
CG13117 | DRSC02215 | 68385 | 52937 | – | 1701 | 4738 | inactive
Lime | DRSC06752 | 1.47e5 | 69661 | – | 3861 | 624 | inactive
CG9396 | DRSC16487 | 57859 | 77962 | – | 1888 | 2141 | inactive
CG31798 | DRSC01702 | 1.59e5 | 2.42e5 | – | 4768 | 12088 | inactive
Cyp316a1 | DRSC11130 | 63075 | 36695 | – | 6825 | 2861 | inactive
CG33322 | DRSC03204 | 70551 | 44080 | – | 1946 | 3848 | inactive
Trp1 | DRSC03465 | 1.28e5 | 42437 | – | 2773 | 5370 | inactive
Parp1 | DRSC07725 | 1.18e5 | 2.87e5 | – | 3005 | 10522 | inactive
Parp1 | DRSC07778 | 79595 | 46677 | – | 3097 | 3876 | inactive
Parp1 | DRSC07780 | 55373 | 50384 | – | 2067 | 4220 | inactive
CG33502 + CG32857 + CG32500 | DRSC20817 | 4.77e5 | 2.37e5 | – | 30019 | 4739 | inactive
CG33502 + CG32857 + CG32500 | DRSC21038 | 44327 | 2.31e5 | – | 1004 | 10032 | inactive
brm | DRSC11330 | 62714 | – | – | 2113 | 2421 | inactive
CG32462 + asRNA:CR43426 | DRSC11851 | 1.34e5 | 1.11e5 | – | 5334 | 4141 | inactive
Obp83cd | DRSC12267 | 86395 | 81408 | – | 3640 | 2944 | inactive
cass | DRSC01850 | 45964 | 24673 | – | 1938 | 1155 | inactive
Inx7 | DRSC18784 | 65168 | 2.55e5 | – | 2706 | 9008 | inactive
CycD | DRSC20233 | 66132 | 1.73e5 | – | 1946 | 7884 | inactive
CG17917 | DRSC12570 | 56164 | 1.12e5 | – | 2298 | 3433 | inactive
CG3557 | DRSC00614 | 1.25e5 | 82252 | – | 5085 | 3286 | inactive
CG14125 | DRSC10129 | 35586 | 65547 | 56522 | 7016 | 3712 | inactive
Fst | DRSC16491 | 1.40e5 | 95709 | – | 6416 | 4168 | inactive
CG17195 | DRSC15188 | 5.49e5 | 1.04e5 | – | 26875 | 3058 | inactive
Snap29 | DRSC04721 | 58043 | 49090 | – | 1789 | 4832 | inactive
CG32579 | DRSC19872 | 1.13e5 | 2.07e5 | – | 3755 | 7837 | inactive
cue | DRSC08248 | 1.32e5 | 65282 | – | 5179 | 2585 | inactive
CG4364 | DRSC02742 | 27491 | 30070 | – | 1725 | 1645 | inactive
CG6179 | DRSC19973 | 65840 | 1.94e5 | – | 1405 | 8229 | inactive
CG12402 | DRSC14508 | 50438 | 69465 | – | 1298 | 1465 | inactive
Rpn5 | DRSC12367 | 91273 | 63256 | – | 4460 | 3210 | inactive
CG15343 | DRSC18028 | 1.01e5 | 4.00e5 | – | 2774 | 13632 | inactive
CG17036 | DRSC02564 | 1.36e5 | 63708 | – | 3625 | 5831 | inactive

5 consecutive records from above, quoted:
target | DRSC id | firefly Hh reporter signal, replicate 1 | firefly Hh reporter signal, replicate 2 | firefly Hh reporter signal, replicate 3 | Renilla reference signal, replicate 1 | Renilla reference signal, replicate 2 | call
CG31145 | DRSC14671 | 4.59e5 | 1.23e5 | – | 25969 | 3664 | inactive
kuk | DRSC15730 | 1.45e5 | 1.03e5 | – | 5956 | 4544 | inactive
spz6 | DRSC04533 | 1.23e5 | 84912 | – | 4514 | 2747 | inactive
CG12320 | DRSC14498 | 5.34e5 | 84584 | – | 26704 | 1796 | inactive
Or47b | DRSC07492 | 1.04e5 | 46129 | – | 2507 | 3549 | inactive
